Here are results for two molecules from publication PMC4865129.

These are yes or no findings as the source states them, for the method shown. In cells and extracts the contact can be indirect. These calls come from enrichment with a bait or labelling near it, and not all partners need be listed. A no says only that the protein was not detected with the bait. Where a sequence is shown, tags or fusion partners need not be part of it.

For assay [1], the target named is T1, AtMORC7 with a C-terminal FLAG or MYC epitope tag (pAtMORC7::AtMORC7-FLAG, pAtMORC7::AtMORC7-MYC) (Arabidopsis thaliana) (UniProt F4JRS4).
T1 sequence: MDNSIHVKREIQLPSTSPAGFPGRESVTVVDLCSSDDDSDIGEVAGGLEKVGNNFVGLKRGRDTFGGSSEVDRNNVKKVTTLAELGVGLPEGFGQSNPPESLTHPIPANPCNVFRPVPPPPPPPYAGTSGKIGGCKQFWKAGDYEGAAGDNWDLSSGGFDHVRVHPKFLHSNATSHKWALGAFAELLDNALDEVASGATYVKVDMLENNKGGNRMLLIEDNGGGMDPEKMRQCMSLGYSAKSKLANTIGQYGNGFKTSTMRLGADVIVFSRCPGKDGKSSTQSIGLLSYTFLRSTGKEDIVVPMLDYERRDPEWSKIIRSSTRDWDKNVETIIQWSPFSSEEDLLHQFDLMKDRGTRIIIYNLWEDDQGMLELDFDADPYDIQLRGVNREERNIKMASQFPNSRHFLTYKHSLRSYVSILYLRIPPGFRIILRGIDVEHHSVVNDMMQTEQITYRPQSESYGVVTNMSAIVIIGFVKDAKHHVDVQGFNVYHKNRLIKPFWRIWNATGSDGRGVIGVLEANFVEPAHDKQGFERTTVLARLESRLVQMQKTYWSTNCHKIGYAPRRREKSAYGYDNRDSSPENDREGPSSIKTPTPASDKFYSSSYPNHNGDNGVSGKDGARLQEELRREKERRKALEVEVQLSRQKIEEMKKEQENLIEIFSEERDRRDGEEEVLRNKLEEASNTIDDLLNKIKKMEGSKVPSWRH
The experiment in a line: affinity purification with mass spectrometry; FLAG-tagged AtMORC4 or AtMORC7 plants; M2 magnetic FLAG beads; elution with 3xFLAG peptides; mass spectrometry.

Assay [2] concerns the target T2, AtMORC4 with a C-terminal FLAG or MYC epitope tag (pAtMORC4::AtMORC4-FLAG, pAtMORC4::AtMORC4-MYC) (Arabidopsis thaliana) (UniProt F4KAF2).
T2 sequence: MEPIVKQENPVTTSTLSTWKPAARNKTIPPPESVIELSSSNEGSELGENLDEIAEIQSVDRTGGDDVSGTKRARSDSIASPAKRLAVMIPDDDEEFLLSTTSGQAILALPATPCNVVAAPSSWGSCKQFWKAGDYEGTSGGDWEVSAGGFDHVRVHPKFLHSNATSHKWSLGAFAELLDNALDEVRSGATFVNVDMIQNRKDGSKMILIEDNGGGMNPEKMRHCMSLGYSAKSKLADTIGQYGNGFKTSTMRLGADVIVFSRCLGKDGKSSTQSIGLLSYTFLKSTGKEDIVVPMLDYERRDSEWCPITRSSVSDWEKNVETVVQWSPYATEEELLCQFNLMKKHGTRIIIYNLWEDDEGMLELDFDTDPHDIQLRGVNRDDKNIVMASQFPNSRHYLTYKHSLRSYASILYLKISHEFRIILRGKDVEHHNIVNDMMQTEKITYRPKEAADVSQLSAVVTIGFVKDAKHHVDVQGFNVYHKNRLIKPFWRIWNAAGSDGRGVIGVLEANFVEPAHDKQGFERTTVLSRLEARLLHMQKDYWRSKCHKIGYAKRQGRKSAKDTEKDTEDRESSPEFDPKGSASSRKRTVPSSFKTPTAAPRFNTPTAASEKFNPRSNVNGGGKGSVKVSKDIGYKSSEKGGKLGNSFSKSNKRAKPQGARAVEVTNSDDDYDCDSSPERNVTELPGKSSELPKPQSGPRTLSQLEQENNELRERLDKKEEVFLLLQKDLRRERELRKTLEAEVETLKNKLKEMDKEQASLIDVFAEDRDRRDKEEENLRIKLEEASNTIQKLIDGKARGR
The assay is described as above.

B1: AtMORC4 (untagged, in plants expressing AtMORC7-FLAG) (protein, UniProt F4KAF2 1-800)
chain: MEPIVKQENPVTTSTLSTWKPAARNKTIPPPESVIELSSSNEGSELGENLDEIAEIQSVDRTGGDDVSGTKRARSDSIASPAKRLAVMIPDDDEEFLLSTTSGQAILALPATPCNVVAAPSSWGSCKQFWKAGDYEGTSGGDWEVSAGGFDHVRVHPKFLHSNATSHKWSLGAFAELLDNALDEVRSGATFVNVDMIQNRKDGSKMILIEDNGGGMNPEKMRHCMSLGYSAKSKLADTIGQYGNGFKTSTMRLGADVIVFSRCLGKDGKSSTQSIGLLSYTFLKSTGKEDIVVPMLDYERRDSEWCPITRSSVSDWEKNVETVVQWSPYATEEELLCQFNLMKKHGTRIIIYNLWEDDEGMLELDFDTDPHDIQLRGVNRDDKNIVMASQFPNSRHYLTYKHSLRSYASILYLKISHEFRIILRGKDVEHHNIVNDMMQTEKITYRPKEAADVSQLSAVVTIGFVKDAKHHVDVQGFNVYHKNRLIKPFWRIWNAAGSDGRGVIGVLEANFVEPAHDKQGFERTTVLSRLEARLLHMQKDYWRSKCHKIGYAKRQGRKSAKDTEKDTEDRESSPEFDPKGSASSRKRTVPSSFKTPTAAPRFNTPTAASEKFNPRSNVNGGGKGSVKVSKDIGYKSSEKGGKLGNSFSKSNKRAKPQGARAVEVTNSDDDYDCDSSPERNVTELPGKSSELPKPQSGPRTLSQLEQENNELRERLDKKEEVFLLLQKDLRRERELRKTLEAEVETLKNKLKEMDKEQASLIDVFAEDRDRRDKEEENLRIKLEEASNTIQKLIDGKARGR
Regarding B1, in assay [1], the binding entry is listed as “no binding”.

B2: AtMORC7 (untagged, in plants expressing AtMORC4-FLAG) (protein, UniProt F4JRS4 1-707)
chain: MDNSIHVKREIQLPSTSPAGFPGRESVTVVDLCSSDDDSDIGEVAGGLEKVGNNFVGLKRGRDTFGGSSEVDRNNVKKVTTLAELGVGLPEGFGQSNPPESLTHPIPANPCNVFRPVPPPPPPPYAGTSGKIGGCKQFWKAGDYEGAAGDNWDLSSGGFDHVRVHPKFLHSNATSHKWALGAFAELLDNALDEVASGATYVKVDMLENNKGGNRMLLIEDNGGGMDPEKMRQCMSLGYSAKSKLANTIGQYGNGFKTSTMRLGADVIVFSRCPGKDGKSSTQSIGLLSYTFLRSTGKEDIVVPMLDYERRDPEWSKIIRSSTRDWDKNVETIIQWSPFSSEEDLLHQFDLMKDRGTRIIIYNLWEDDQGMLELDFDADPYDIQLRGVNREERNIKMASQFPNSRHFLTYKHSLRSYVSILYLRIPPGFRIILRGIDVEHHSVVNDMMQTEQITYRPQSESYGVVTNMSAIVIIGFVKDAKHHVDVQGFNVYHKNRLIKPFWRIWNATGSDGRGVIGVLEANFVEPAHDKQGFERTTVLARLESRLVQMQKTYWSTNCHKIGYAPRRREKSAYGYDNRDSSPENDREGPSSIKTPTPASDKFYSSSYPNHNGDNGVSGKDGARLQEELRREKERRKALEVEVQLSRQKIEEMKKEQENLIEIFSEERDRRDGEEEVLRNKLEEASNTIDDLLNKIKKMEGSKVPSWRH
As for B2, in assay [2], the binding entry is “no binding”.
